This note sets out measurements from PMC7605441.

Chains of the proteins cited; added tags and fusions are not shown.
UniProt Q08297: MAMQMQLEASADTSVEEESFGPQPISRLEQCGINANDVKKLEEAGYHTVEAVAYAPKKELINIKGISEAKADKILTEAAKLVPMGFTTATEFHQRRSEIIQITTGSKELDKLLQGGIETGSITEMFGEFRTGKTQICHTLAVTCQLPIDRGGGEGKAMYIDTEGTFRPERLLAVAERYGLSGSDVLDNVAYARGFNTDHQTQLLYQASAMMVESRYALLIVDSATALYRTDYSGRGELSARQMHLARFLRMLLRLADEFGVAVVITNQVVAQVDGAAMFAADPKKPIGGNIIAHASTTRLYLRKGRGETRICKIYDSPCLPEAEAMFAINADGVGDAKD

Where a chain is given by its changes, count along the chain named. Results are given in words; binding and its absence hold for the method and conditions named. Binding seen in cells or lysates may run through a third protein. Some entries that bind do so weakly or less than the wild type. Where a sequence is shown, tags or fusion partners need not be part of it.

Common to all, as to assay: co-IP; GFP-tagged RAD51 co-expressed with mCherry-fused RAD51AP1 (WT or mutant) in 293T/293FT cells; reciprocal immunoprecipitation (lanes 1-10 and lanes 11-20 of Fig. 7e) on protein A-agarose beads with antibody, EBN buffer (0.5% NP40, 150 mM NaCl), 5 h, 4 °C, immunoblot; asynchronous cells, or cells arrested in mitosis with nocodazole (WT only)
(In western blotting, separated proteins are transferred to a membrane and probed.)

For test [1], the target named is T1, murine RAD51AP1 S309A fused to mCherry (mouse) (UniProt Q8C551).
T1 sequence: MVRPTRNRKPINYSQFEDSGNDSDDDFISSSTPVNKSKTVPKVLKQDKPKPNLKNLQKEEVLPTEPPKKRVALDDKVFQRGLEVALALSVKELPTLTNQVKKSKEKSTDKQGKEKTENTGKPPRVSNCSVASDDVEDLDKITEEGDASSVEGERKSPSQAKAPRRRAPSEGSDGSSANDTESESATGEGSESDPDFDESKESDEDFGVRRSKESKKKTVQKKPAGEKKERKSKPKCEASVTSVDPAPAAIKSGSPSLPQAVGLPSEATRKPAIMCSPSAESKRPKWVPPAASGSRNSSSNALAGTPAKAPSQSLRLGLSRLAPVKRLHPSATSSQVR

Test [2] has as its target T2, murine RAD51AP1 S309D fused to mCherry (mouse) (UniProt Q8C551).
T2 sequence: T1 sequence with A309D

Test [3] has as its target T3, murine RAD51AP1 T305D fused to mCherry (mouse) (UniProt Q8C551).
T3 sequence: T1 sequence with T305D, A309S

Test [4] has as its target T4, murine RAD51AP1 T305D/S309D fused to mCherry (mouse) (UniProt Q8C551).
T4 sequence: T1 sequence with T305D, A309D

Test [5] addresses T5, wild-type murine RAD51AP1 fused to mCherry (mouse) (UniProt Q8C551).
T5 sequence: T1 sequence with A309S

In the case of “murine RAD51 with a C-terminal EGFP tag (from UniProt Q08297 1-339)”, the binding result in test [1] is “binds”; in test [2], “binds”; in test [3], “binds”; in test [4] it was “binds weakly”; in test [5], “binds”.
